Experimental data reported in PMC7969623.
Results are given in words; binding and its absence hold for the method and conditions named. Binding seen in cells or lysates may run through a third protein. Some results given as binding are weak or reduced against the parent protein; the word gives no strength.

Target: Sodium/potassium-transporting ATPase subunit alpha-3 (mouse (endogenous in mouse brain)) (UniProt Q6PIC6)
Assay: co-IP; detergent extract of mouse brain immunoprecipitated with monoclonal antibodies to α3-NKA or α1-NKA (anti-GFP as control) on Protein G Sepharose; western blotting with PRRT2 antibodies

binding: binds
B1: PRRT2 (endogenous, mouse brain) (protein, UniProt E9PUL5 1-346)
chain: MAASSSQVSEMKGVEDSSKTQTEGPRHSEEGLGPVQVVAEIPDQPEALQPGPGITAAPVDSGPKAELAPETTETPVETPETVQATDLSLNPEEGSKASPSPSPSEARQEPASKPDVNRETAAEEGSEPQSTAPPEPTSEPAFQINTQSDPQPTSQPPPKPPLQAEPPTQEDPTTEVLTESTGEKQENGAVVPLQAGDGEEGPAPQPHSPPSTKTPPANGAPPRVLQKLVEEDRIGRAHGGHPGSPRGSLSRHPSSQLAGPGVEGGEGTQKPRDYIILAILSCFCPMWPVNIVAFAYAVMSRNSLQQGDVDGAQRLGRVAKLLSIVALVGGVLIIIASCVINLGVYK
